PMC9733060, “Novel alendronate-CGS21680 conjugate reduces bone resorption and induces new bone formation in post-menopausal osteoporosis and inflammatory osteolysis mouse models” (Arthritis Research & Therapy, 2022)

Sequences of proteins named here, by UniProt entry; tags and fusion partners are left off. A change or cut given only in a name is not applied to a line headed by its entry.
UniProt P29275, whole entry: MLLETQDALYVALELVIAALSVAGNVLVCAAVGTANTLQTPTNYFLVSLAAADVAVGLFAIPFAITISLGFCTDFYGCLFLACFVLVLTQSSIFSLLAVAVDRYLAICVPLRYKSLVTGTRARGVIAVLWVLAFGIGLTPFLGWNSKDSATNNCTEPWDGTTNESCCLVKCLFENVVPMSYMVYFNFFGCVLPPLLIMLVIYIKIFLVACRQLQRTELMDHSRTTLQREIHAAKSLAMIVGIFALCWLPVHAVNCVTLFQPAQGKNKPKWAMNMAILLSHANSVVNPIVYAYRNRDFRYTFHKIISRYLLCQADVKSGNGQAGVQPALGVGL

Experiments:
hA2AR = hA2AR (Homo sapiens, UniProt P29274); conditions: read-out: Ki, A2A adenosine receptor affinity; radioligand [3H]CGS21680 10 nM, HEK293 membranes; tested form: triethylammonium salt
[1] = biological target: human A2A adenosine receptor (Homo sapiens, UniProt P29274); experiment: cyclic AMP functional assay, A2A adenosine receptor in HEK293 cells
[2] = biological target: human A2B adenosine receptor (Homo sapiens, UniProt P29275); experiment: cyclic AMP functional assay, A2B adenosine receptor in HEK293 cells; conditions: 10 μM; compared to full agonist NECA (10 μM); tested form: triethylammonium salt
[3] = tested on: ovariectomy-induced osteoporotic mice; conditions: tested form: triethylammonium salt
[4] = tested on: UHMWPE-induced osteolytic mice (WT); experiment: UHMWPE wear particle-induced osteolysis (OL) in WT mice calvaria; assay type: in vivo, mouse; conditions: tested form: triethylammonium salt
[5] = tested on: human primary osteoclasts; experiment: human primary osteoclast differentiation (RANKL, TRAP staining); conditions: tested form: triethylammonium salt; for inhibition of osteoclast differentiation: versus AlenP and alendronate
[6] = tested on: human primary osteoblasts; experiment: human primary osteoblast mineralization (Alizarin Red); conditions: 1 μM, 10 days, osteogenic medium; tested form: triethylammonium salt
[7] = L5 vertebra trabecular bone, μCT, mean ± SEM, 10 mg/kg weekly IP, 9 weeks
[8] = femur cortical bone, μCT, mean ± SEM, 10 mg/kg weekly IP, 9 weeks
[9] = femur trabecular bone, μCT, mean ± SEM, 10 mg/kg weekly IP, 9 weeks

CCNC(=O)[C@H]1O[C@@H](n2cnc3c(N)nc(NCCc4ccc(CCC(=O)NCCOCCOCCOCCOCCOCCOCCC(=O)NCCCC(O)(P(=O)(O)O)P(=O)(O)O)cc4)nc32)[C@H](O)[C@@H]1O
Ki (hA2AR): 69.2 nM | EC50 ([1]; read-out: EC50, A2A adenosine receptor activation (cyclic AMP), 1 μM CGS21680 as control, tested form: triethylammonium salt): 9 nM | agonist efficacy at the A2A adenosine receptor (cyclic AMP) ([1]; tested form: triethylammonium salt): full agonist | activation of A2B adenosine receptor (cyclic AMP) [2]: 33% | BS/BV [3, 7]: 68.78 ± 3.48* 1/mm | BV/TV [3, 7]: 16.11 ± 1.63 & % | Tb.N [3, 7]: 3.37 ± 0.32 & 1/mm | Tb.Pf [3, 7]: 9.71 ± 1.44 & 1/mm | Tb.Sp [3, 7]: 0.254 ± 0.019 # & μm | Tb.Th [3, 7]: 0.048 ± 0.002 μm | number of alkaline phosphatase positive osteoblasts in bone ([3]; OVX mice femur, compared to AlenP or saline): increased number of alkaline phosphatase positive osteoblasts | TRAP+ osteoclasts in bone ([3]; OVX mice femur, compared to saline-treated mice): nearly completely eliminated TRAP+ osteoclasts | total body BMD / OP bone loss by DXA scan ([3]; OVX mice, 10 mg/kg weekly IP, after 6 weeks of treatment): significantly reversed OP bone loss | new bone formation in femur (fluorochrome labeling) ([3]; OVX mice, 10 mg/kg weekly IP): stimulated an increase in new bone formation | BMD in femurs and L5 vertebrae by μCT ([3]; OVX mice, 9 weeks of treatment, versus saline or AlenP, p < 0.05): significantly higher BMD | BV [3, 8]: 0.470 ± 0.010 * mm^3 | BV/TV [3, 8]: 46.26 ± 1.10 | TV [3, 8]: 1.017 ± 0.032 mm^3 | BS/BV [3, 9]: 100.03 ± 1.07 & 1/mm | BV/TV [3, 9]: 2.170 ± 0.347 # & % | Tb.N [3, 9]: 0.544 ± 0.099 # & 1/mm | Tb.Pf [3, 9]: 36.37 ± 2.20 1/mm | Tb.Sp [3, 9]: 0.443 ± 0.023 & μm | Tb.Th [3, 9]: 0.0401 ± 0.0014 & μm | A2A agonist toxicities (hypotension, locomotor depression, core body temperature depression) ([3]; mice, acute administration): did not observe these toxicities | alkaline phosphatase positive osteoblasts in calvaria ([4]; OL mice, compared to healthy mice): more alkaline phosphatase positive osteoblasts | TRAP+ osteoclasts in calvaria ([4]; OL mice, compared to saline alone): fewer TRAP+ osteoclasts | in vivo bone formation (calcein/Alizarin) ([4]; OL mice): enhanced | calvarial pitting and porosity / inflammatory bone loss by μCT ([4]; WT mice, 10 mg/kg weekly IP, 2 weeks): significant reduction in pitting and porosity | inhibition of osteoclast differentiation ([5]; 1 μM dose): significantly more effective | inhibition of osteoclast differentiation in the presence of A2A antagonist ([5]; 1 μM, with ZM241385): partially reversed | inhibition of osteoclast differentiation ([5]; higher doses): equally effective | mineralizing capacity of osteoblasts (Alizarin Red staining) [6]: enhanced

Read-outs that look alike come from different tables or passages of the source. The structures given here were assigned with low confidence; some may be wrong. Marks after values point to notes of the source that are not given here.
